Results on 18 compounds are retold here after PubChem BioAssay AID493014 (National Center for Advancing Translational Sciences (NCATS), 2011).

The other results are listed elsewhere or left out. The main result of the screen is listed elsewhere. These columns were measured beside it and carry no call. The list favours compounds with an active or inconclusive main result. Potencies come from curve fits of mixed quality, noted in brackets.

A short description of this test: qHTS Assay to Find Inhibitors of Chronic Active B-Cell Receptor Signaling. The settings on record: ABC-DLBCL IkBa-CBG/CBR reporter, luminescence ratio (green luciferase fused to IkBa over red control in TMD8 lymphoma cells), 4 h. The method in brief:
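Concentration-response series (up to 46 uM) were applied to TMD8 dual-reporter cells for 4 h at 37C with doxycycline. Green/red ratio, after filter-overlap correction, defined %Activity; red signal alone was normalised to basal cells and zero luminescence.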

Setting [1] is: measured here: CBR red luminescence, cell number.

Usually AC50 stands for the concentration at which the activity in the assay is half-maximal. `O=C(Nc1ccc(Cl)cn1)c1cccc(S(=O)(=O)N2CCCC2)c1`: the AC50 under setting [1] was 11.2 µM [falling, partial curve, poor fit].

As for `CCCc1nc2cc(CC(=O)OC)ccc2o1`, the AC50 under setting [1] is 20 µM [rising, partial curve, poor fit]. Still for that read-out and setting: for `COC(=O)c1nn(-c2cccc(C(F)(F)F)c2)ccc1=O` the value was 35.5 µM [rising, single point]. Same read-out and setting: next, `COc1cc(CO)ccc1OCc1ccc(Cl)nc1`: 11.2 µM [falling, single point]; `Cc1ccc(C23CC4CC(CC(CN)(C4)C2)C3)cc1`: 17.8 µM [falling, single point].

`Cc1cc(C)c(N=Cc2c(O)n(-c3nccs3)c(=O)c3ccccc23)c(C)c1`: under “measured here: IkBa-CBG green luminescence”, the AC50 is 20.6 µM [rising, partial curve, poor fit]. As for `O=C(NC1CCN(C(=S)Nc2ccc(Cl)cc2)CC1)c1ccco1`, the AC50 under setting [1] is 22.4 µM [rising, partial curve, poor fit]. As for `O=[N+]([O-])c1ccc(-c2nc(C(Cl)Cl)c3ccccc3n2)cc1`, the AC50 under setting [1] was 0.708 µM [rising, full curve, poor fit].

Turning to `O=C(CN1C(=O)NC2(CCCC2)C1=O)NNC(=O)c1ccccc1F`, the AC50 under setting [1] is 18.4 µM [rising, partial curve, poor fit].

For the compound `CN(CC(=O)Nc1ccc(F)cc1)C(=O)c1cccc(S(=O)(=O)N2CCN(c3ccccc3)CC2)c1`, the AC50 under setting [1] was 15.8 µM [falling, single point]. Still for that read-out and setting: for `CCOC(=O)c1c(-c2ccc(C)o2)csc1NC(=S)NC(=O)N(C)C` the value was 35.5 µM [rising, single point].

In the case of `NC(=O)c1ccc(NC(=O)CSc2nc3ccccc3c(=O)n2CCCN2CCOCC2)cc1`, the AC50 under setting [1] was 20.6 µM [rising, partial curve, poor fit]. On the same count and under the same terms, for `Cc1ccc(C(=O)Nc2cccc(C(F)(F)F)c2)cc1NC(=O)c1ccno1` the value was 0.224 µM [falling, full curve, poor fit]; for `CCC(=O)Oc1ccc(C(=O)Nc2ccc3c(c2)OCO3)cc1`, 5.01 µM [falling, partial curve].

Consider `COC(=O)c1ccc(Nc2ncnc3sccc23)cc1`, for which, under setting [1], the AC50 was 2.82 µM [rising, partial curve, poor fit]. Still for that read-out and setting: next, `O=C(Nc1sc2c(c1C(=O)O)CCC2)c1ccco1`: 5.8 µM [falling, partial curve]; `Cc1noc(C)c1COc1ccccc1C(=O)NCCOc1ccccc1`: 23.1 µM [rising, single point]; `CCOC(=O)C(C)(C)N(Cc1ccc(Cl)cc1)S(=O)(=O)c1ccc(Cl)c([N+](=O)[O-])c1`: 23.1 µM [falling, partial curve, poor fit].
